The results in this text go back to the supplement of paper PMC6411743.

Amino acid sequences for entries named in this document (tags omitted). A change or cut given only in a name is not applied to a line headed by its entry.
UniProt Q9Y3P8: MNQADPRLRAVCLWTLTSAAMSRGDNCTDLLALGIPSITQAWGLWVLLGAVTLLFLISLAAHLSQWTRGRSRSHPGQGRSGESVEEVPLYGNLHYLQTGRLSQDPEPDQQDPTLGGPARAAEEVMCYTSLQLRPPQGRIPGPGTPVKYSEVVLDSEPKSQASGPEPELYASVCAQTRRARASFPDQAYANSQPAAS
UniProt Q9Y421: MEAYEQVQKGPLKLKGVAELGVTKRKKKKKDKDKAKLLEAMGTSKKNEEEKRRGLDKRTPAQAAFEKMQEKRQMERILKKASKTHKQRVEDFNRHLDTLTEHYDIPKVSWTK
UniProt Q9Y4D1, whole entry: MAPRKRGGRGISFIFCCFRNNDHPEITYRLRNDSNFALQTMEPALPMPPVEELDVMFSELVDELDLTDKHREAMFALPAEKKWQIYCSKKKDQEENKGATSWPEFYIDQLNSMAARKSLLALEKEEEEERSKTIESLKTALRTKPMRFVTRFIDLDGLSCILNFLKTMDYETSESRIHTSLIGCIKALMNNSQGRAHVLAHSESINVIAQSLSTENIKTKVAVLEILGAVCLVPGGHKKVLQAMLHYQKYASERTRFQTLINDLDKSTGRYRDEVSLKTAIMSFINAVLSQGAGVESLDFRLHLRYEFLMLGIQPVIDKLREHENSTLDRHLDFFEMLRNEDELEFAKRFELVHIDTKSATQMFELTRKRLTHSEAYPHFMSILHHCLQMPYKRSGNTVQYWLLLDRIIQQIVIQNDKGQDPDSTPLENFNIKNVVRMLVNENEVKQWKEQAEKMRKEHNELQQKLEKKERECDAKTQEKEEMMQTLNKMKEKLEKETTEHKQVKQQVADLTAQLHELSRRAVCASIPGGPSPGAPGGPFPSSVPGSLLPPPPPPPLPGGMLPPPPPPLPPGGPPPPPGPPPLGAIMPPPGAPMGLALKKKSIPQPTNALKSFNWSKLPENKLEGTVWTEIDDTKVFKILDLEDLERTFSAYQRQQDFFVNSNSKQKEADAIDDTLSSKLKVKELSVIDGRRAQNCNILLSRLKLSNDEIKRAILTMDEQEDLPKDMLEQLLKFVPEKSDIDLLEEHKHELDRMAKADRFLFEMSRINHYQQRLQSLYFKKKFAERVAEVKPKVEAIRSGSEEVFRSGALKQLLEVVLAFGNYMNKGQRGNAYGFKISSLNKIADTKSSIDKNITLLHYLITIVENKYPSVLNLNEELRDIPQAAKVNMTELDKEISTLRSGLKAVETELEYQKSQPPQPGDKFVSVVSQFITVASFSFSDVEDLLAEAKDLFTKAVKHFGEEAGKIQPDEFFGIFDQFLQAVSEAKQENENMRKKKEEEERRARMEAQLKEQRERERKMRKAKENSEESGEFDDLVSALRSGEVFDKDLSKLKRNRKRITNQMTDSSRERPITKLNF
UniProt Q9Y639: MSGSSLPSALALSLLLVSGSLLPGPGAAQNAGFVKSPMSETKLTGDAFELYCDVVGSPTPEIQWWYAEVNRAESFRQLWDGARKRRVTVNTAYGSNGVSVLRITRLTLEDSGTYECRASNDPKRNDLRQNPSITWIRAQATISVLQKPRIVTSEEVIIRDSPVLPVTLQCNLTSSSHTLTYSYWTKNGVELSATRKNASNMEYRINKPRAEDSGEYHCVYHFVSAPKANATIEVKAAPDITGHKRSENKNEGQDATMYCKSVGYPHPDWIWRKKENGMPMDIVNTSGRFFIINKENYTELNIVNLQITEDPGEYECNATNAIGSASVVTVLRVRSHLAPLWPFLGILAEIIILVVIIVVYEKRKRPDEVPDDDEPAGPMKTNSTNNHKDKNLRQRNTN
UniProt Q9Y5X3: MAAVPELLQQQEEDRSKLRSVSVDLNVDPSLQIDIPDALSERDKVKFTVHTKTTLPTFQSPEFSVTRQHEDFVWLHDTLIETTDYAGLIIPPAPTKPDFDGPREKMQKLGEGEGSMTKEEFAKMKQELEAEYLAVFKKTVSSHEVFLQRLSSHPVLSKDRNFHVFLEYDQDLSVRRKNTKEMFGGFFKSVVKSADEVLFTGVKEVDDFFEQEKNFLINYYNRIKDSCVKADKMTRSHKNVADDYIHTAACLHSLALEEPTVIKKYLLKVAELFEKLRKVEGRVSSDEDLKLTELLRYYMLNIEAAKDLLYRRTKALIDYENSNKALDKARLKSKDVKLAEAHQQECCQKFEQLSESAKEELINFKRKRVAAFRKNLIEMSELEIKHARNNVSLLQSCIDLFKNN
UniProt Q9Y5Q9: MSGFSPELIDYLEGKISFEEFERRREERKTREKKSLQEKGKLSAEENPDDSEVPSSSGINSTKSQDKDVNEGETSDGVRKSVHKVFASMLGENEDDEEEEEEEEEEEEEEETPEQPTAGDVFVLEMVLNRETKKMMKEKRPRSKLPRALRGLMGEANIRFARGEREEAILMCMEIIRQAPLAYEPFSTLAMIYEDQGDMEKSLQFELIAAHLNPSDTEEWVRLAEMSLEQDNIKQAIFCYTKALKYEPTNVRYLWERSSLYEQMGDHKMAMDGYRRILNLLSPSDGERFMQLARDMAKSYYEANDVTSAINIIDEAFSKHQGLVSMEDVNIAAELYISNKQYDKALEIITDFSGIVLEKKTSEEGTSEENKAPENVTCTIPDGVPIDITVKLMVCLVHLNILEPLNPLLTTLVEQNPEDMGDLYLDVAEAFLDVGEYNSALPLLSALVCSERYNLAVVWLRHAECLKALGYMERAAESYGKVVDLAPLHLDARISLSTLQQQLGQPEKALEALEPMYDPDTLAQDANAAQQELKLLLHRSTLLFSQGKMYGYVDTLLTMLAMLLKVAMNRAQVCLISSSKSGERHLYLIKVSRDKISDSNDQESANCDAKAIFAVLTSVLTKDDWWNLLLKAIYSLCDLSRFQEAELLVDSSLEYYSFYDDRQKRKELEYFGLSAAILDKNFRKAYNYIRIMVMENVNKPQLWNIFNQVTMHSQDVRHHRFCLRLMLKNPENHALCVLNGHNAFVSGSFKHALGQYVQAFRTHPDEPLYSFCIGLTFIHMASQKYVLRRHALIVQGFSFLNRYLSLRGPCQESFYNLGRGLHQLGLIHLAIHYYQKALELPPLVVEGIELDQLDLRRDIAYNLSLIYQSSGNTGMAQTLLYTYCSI
UniProt Q03519, whole entry: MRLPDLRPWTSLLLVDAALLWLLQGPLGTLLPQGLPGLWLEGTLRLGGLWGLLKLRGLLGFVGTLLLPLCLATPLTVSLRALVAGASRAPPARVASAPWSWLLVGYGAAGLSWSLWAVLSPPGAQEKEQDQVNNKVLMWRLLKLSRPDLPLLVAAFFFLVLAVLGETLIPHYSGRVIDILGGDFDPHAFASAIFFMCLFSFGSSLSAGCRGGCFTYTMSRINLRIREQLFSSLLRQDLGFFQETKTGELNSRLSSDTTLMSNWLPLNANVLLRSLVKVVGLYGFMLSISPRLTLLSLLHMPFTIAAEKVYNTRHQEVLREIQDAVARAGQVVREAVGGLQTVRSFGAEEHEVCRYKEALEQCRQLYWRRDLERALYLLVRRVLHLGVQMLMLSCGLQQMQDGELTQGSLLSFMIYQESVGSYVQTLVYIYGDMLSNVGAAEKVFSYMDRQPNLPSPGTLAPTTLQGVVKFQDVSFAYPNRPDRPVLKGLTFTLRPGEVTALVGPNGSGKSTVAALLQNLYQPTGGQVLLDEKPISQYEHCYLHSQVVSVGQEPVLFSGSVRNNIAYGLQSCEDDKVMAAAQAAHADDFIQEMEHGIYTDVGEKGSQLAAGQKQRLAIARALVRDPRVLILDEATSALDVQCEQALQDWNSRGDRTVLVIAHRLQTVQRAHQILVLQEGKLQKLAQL
UniProt Q9Y5K8, whole entry: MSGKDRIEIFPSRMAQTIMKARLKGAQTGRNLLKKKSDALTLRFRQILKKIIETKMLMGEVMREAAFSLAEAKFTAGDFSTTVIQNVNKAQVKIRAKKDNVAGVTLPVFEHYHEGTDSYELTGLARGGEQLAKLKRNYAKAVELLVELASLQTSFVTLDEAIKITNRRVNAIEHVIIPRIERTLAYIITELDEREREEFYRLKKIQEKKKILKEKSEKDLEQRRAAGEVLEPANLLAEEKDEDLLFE
UniProt Q9Y535: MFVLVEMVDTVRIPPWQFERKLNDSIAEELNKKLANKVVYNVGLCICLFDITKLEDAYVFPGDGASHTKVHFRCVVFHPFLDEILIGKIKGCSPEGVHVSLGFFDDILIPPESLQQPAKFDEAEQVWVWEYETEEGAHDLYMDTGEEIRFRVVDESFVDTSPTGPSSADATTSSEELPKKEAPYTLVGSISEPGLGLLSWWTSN
UniProt Q9Y5Y5: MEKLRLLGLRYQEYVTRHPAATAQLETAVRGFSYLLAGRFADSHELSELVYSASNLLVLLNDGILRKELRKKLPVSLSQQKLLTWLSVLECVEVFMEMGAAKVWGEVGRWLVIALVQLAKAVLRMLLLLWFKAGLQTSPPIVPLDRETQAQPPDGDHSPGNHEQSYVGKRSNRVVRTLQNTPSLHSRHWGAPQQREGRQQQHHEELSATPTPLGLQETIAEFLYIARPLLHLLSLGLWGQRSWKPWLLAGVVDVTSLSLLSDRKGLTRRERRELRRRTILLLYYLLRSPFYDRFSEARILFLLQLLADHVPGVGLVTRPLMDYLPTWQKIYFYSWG
UniProt Q9Y5Z9: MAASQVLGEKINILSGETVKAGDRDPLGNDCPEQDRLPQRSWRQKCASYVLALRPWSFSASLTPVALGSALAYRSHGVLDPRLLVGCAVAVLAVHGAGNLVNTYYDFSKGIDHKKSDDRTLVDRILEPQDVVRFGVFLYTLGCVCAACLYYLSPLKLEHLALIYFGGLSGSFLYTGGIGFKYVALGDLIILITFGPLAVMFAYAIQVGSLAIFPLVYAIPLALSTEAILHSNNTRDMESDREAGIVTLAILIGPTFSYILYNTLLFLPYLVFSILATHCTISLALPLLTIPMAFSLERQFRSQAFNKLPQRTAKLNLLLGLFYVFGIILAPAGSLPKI
UniProt Q9Y6R1: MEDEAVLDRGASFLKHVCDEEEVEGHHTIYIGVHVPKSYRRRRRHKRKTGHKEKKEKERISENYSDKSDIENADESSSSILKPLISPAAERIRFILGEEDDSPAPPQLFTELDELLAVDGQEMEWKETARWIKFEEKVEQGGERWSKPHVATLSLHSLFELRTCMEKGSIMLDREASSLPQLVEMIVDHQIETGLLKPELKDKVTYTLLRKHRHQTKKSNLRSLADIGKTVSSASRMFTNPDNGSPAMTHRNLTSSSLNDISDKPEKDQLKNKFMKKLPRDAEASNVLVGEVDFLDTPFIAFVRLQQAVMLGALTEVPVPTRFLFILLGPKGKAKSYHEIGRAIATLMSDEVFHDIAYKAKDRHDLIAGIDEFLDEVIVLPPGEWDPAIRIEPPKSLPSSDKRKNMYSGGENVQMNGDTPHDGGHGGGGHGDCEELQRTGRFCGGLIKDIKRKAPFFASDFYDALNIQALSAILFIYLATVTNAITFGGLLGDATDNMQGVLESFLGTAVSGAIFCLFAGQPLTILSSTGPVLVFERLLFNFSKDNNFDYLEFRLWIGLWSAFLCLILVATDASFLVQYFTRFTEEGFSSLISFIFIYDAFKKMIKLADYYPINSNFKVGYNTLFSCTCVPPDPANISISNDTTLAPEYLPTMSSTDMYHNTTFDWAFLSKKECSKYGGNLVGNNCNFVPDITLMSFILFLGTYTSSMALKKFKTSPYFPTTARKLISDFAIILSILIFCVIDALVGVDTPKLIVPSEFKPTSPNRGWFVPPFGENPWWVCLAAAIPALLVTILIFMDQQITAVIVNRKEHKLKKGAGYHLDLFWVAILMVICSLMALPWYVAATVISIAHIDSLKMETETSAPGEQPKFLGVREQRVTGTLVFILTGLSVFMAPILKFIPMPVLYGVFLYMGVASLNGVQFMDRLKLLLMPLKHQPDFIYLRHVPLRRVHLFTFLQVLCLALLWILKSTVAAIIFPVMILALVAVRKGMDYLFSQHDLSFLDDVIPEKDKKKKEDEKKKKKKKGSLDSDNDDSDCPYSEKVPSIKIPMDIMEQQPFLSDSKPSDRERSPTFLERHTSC
UniProt Q9Y5R8, whole entry: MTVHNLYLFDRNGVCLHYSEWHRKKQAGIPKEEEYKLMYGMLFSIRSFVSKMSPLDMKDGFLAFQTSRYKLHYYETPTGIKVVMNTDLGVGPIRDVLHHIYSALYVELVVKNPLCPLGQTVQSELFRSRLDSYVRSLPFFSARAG
UniProt Q9Y6V7: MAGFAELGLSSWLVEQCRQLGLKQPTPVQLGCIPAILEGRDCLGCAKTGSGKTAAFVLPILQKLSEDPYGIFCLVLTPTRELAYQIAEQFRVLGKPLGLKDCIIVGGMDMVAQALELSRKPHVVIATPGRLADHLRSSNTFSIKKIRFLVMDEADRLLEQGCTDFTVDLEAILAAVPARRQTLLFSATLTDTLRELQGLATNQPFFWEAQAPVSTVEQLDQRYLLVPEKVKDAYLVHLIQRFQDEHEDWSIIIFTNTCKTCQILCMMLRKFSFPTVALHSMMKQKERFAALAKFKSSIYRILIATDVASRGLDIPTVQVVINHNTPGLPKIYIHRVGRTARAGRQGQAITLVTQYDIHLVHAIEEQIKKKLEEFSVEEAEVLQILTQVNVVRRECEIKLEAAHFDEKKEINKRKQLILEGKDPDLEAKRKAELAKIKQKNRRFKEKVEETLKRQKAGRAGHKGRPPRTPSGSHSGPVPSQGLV

Compound in the test: Nc1ncnc2c1ncn2[C@@H]1O[C@H](COP(=O)(O)OP(=O)(O)NP(=O)(O)O)[C@@H](O)[C@H]1O [adenylyl imidodiphosphate]
The test is described as follows: NP40-soluble protein abundance relative to vehicle (solubility fold change) (ratio); higher = more soluble protein in presence of AMP-PNP. An outline of the steps: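 Crude Jurkat lysate, prepared by Dounce homogenisation, was exposed to eight concentrations from 0.1 to 10 mM for 10 min at room temperature and then 3 min at 37 °C. Solubilisation used 0.8% NP40 with benzonase for 60 min at 4 °C, followed by ultracentrifugation and TMT labelling of the supernatant for LC-MS/MS. After vsn normalisation of intensities, each value is the fold change against the detergent-processed vehicle within each replicate, across three independent experiments.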

± gives the standard deviation of the averaged measurements. The entries are a selection whose mix differs from that of the whole data set.

In the case of UniProt Q9Y3P8, the NP40-soluble protein abundance reads like this: (concentration: 1mM) 1.04 ± 0.034; (concentration: 2mM) 1.04 ± 0.021; (concentration: 4mM) 1 ± 0.033; (concentration: 6mM) 1.01 ± 0.025; (concentration: 8mM) 1 ± 0.044; (concentration: 10mM) 0.974 ± 0.021.

As for UniProt Q9Y421 and related entries, the NP40-soluble protein abundance is, setting by setting: (concentration: 1mM) 1.04 ± 0.023; (concentration: 2mM) 1.08 ± 0.054; (concentration: 4mM) 1.05 ± 0.029; (concentration: 6mM) 1.06 ± 0.038; (concentration: 8mM) 1.08 ± 0.044; (concentration: 10mM) 1.1 ± 0.016.

For the target UniProt Q9Y4D1 and related entries, the NP40-soluble protein abundance (concentration: 1mM) was determined as 0.967 ± 0.021; the NP40-soluble protein abundance (concentration: 2mM) was found to be 1 ± 0.024; the NP40-soluble protein abundance (concentration: 4mM) worked out at 1 ± 0.034; the NP40-soluble protein abundance (concentration: 6mM) came to 0.9671 ± 0.0056; the NP40-soluble protein abundance (concentration: 8mM) is 0.947 ± 0.024; the NP40-soluble protein abundance (concentration: 10mM) came to 0.99 ± 0.041.

Regarding UniProt Q9Y639 and related entries, the NP40-soluble protein abundance runs as follows: (concentration: 1mM) 1.01 ± 0.056; (concentration: 2mM) 1.05 ± 0.055; (concentration: 4mM) 1.01 ± 0.056; (concentration: 6mM) 0.986 ± 0.028; (concentration: 8mM) 0.984 ± 0.055; (concentration: 10mM) 0.961 ± 0.025.

For SNX5 (UniProt Q9Y5X3), the NP40-soluble protein abundance runs as follows: (concentration: 1mM) 1.019 ± 0.0086; (concentration: 2mM) 1.05 ± 0.08; (concentration: 4mM) 1.03 ± 0.025; (concentration: 6mM) 1.04 ± 0.031; (concentration: 8mM) 1.01 ± 0.046; (concentration: 10mM) 1.05 ± 0.045.

Turning to GTF3C3 (UniProt Q9Y5Q9), the NP40-soluble protein abundance (concentration: 1mM) was determined as 1.02 ± 0.023; the NP40-soluble protein abundance (concentration: 2mM) was found to be 1.01 ± 0.02; the NP40-soluble protein abundance (concentration: 4mM) amounted to 1.02 ± 0.022; the NP40-soluble protein abundance (concentration: 6mM) worked out at 0.938 ± 0.042; the NP40-soluble protein abundance (concentration: 8mM) came out at 0.916 ± 0.042; the NP40-soluble protein abundance (concentration: 10mM) came to 0.905 ± 0.024.

Turning to “X5CMH5 and related entries (UniProt Q03519)”, the NP40-soluble protein abundance (concentration: 1mM) amounted to 0.964 ± 0.038; the NP40-soluble protein abundance (concentration: 2mM) came to 0.959 ± 0.015; the NP40-soluble protein abundance (concentration: 4mM) came out at 0.975 ± 0.036; the NP40-soluble protein abundance (concentration: 6mM) stood at 0.982 ± 0.055; the NP40-soluble protein abundance (concentration: 8mM) came out at 1.03 ± 0.046; the NP40-soluble protein abundance (concentration: 10mM) was 0.984 ± 0.04.

Turning to ATP6V1D (UniProt Q9Y5K8), the NP40-soluble protein abundance stood at 0.981 ± 0.025 (concentration: 1mM); 1.02 ± 0.077 (concentration: 2mM); 0.973 ± 0.026 (concentration: 4mM); 0.966 ± 0.03 (concentration: 6mM); 0.966 ± 0.019 (concentration: 8mM); 0.989 ± 0.07 (concentration: 10mM).

As for UniProt Q9Y535 and related entries, the NP40-soluble protein abundance is, setting by setting: (concentration: 1mM) 0.9881 ± 0.0077; (concentration: 2mM) 0.973 ± 0.033; (concentration: 4mM) 0.981 ± 0.048; (concentration: 6mM) 0.974 ± 0.028; (concentration: 8mM) 0.973 ± 0.022; (concentration: 10mM) 0.968 ± 0.018.

On to UniProt Q9Y5Y5 and related entries, for which the NP40-soluble protein abundance was found to be 0.967 ± 0.051 (concentration: 1mM); 0.97 ± 0.05 (concentration: 2mM); 0.9611 ± 0.0026 (concentration: 4mM); 1.04 ± 0.024 (concentration: 6mM); 1.03 ± 0.032 (concentration: 8mM); 1.02 ± 0.052 (concentration: 10mM).

On to UniProt Q9Y5Z9 and related entries, for which the NP40-soluble protein abundance came out at 0.989 ± 0.042 (concentration: 1mM); 1.02 ± 0.045 (concentration: 2mM); 1 ± 0.042 (concentration: 4mM); 1.005 ± 0.0059 (concentration: 6mM); 1.03 ± 0.035 (concentration: 8mM); 1.04 ± 0.031 (concentration: 10mM).

As for UniProt Q9Y6R1 and related entries, the NP40-soluble protein abundance by setting is: (concentration: 1mM) 0.986 ± 0.015; (concentration: 2mM) 1.01 ± 0.02; (concentration: 4mM) 0.986 ± 0.022; (concentration: 6mM) 0.988 ± 0.035; (concentration: 8mM) 0.979 ± 0.028; (concentration: 10mM) 0.994 ± 0.016.

Regarding TRAPPC1 (UniProt Q9Y5R8), the NP40-soluble protein abundance (concentration: 1mM) was 0.994 ± 0.048; the NP40-soluble protein abundance (concentration: 2mM) came to 0.918 ± 0.01; the NP40-soluble protein abundance (concentration: 4mM) amounted to 1.04 ± 0.026; the NP40-soluble protein abundance (concentration: 6mM) worked out at 1.02 ± 0.066; the NP40-soluble protein abundance (concentration: 8mM) worked out at 1.09 ± 0.025; the NP40-soluble protein abundance (concentration: 10mM) worked out at 0.9883 ± 0.0018.

For DDX49 (UniProt Q9Y6V7), the NP40-soluble protein abundance is 1.09 ± 0.076 (concentration: 1mM); 1.13 ± 0.092 (concentration: 2mM); 1.15 ± 0.12 (concentration: 4mM); 1.13 ± 0.1 (concentration: 6mM); 1.15 ± 0.12 (concentration: 8mM); 1.24 ± 0.21 (concentration: 10mM).
